Source: PubChem BioAssay AID588590 (National Center for Advancing Translational Sciences (NCATS), 2011)
Hit rate of the full screen: of about 390,000 compounds, about 4,000 (1%) were called active. This list was built around the results that the source calls inconclusive (neither active nor inactive); the mix of calls is not that of the screen. The call rests on the fitted dose curve; in most records, active means well fitted inhibition curve with a large enough effect; inconclusive means small, poorly fitted or top-dose-only effect, or another doubt; inactive means no such curve, though single readings can be large or run the other way. A potency beside an inconclusive call is a rough fit, not a confirmed value.

Chains of the proteins cited; added tags and fusions are not shown. Lines headed by an entry give the natural chain unless they say otherwise; changes in a name come on top.
UniProt Q9UNA4: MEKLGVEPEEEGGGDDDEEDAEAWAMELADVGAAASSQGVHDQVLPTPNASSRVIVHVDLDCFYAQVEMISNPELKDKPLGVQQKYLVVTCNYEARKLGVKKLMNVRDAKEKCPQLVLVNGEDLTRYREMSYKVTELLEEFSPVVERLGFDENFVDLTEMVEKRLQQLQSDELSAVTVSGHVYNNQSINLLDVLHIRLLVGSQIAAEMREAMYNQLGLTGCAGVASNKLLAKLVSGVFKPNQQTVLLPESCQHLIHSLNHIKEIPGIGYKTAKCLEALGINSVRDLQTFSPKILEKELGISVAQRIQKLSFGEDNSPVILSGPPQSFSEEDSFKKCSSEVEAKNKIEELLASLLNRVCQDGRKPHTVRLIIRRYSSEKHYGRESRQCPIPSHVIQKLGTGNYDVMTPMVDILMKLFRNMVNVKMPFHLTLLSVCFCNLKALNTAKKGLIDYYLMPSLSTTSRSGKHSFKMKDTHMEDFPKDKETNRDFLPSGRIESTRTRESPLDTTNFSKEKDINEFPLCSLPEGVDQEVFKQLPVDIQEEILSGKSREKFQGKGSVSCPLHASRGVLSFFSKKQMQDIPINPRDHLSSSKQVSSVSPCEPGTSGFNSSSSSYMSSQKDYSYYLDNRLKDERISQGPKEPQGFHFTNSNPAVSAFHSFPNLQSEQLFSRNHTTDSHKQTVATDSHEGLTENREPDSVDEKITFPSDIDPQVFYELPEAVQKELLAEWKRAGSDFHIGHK

Each compound was assayed against DNA polymerase iota (Homo sapiens) (UniProt Q9UNA4) (assay: qHTS for Inhibitors of Polymerase Iota). Settings: Pol iota fluorescent replication assay, 10 min; series mostly up to 115 µM.
How it was run: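 Pol iota at 10 nM preincubated 15 min with compounds at room temperature; reaction started with fluorescent substrate, 50 nM final. Fluorescence read kinetically at 0 and 10 min; buffer-only wells as negative control.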
Potency means the concentration at half of the fitted maximal effect.

| SMILES | Potency |
| --- | --- |
| CC(C)C[C@@H]1CN=C(N)N1C[C@@H]1CCCN1C[C@H](C)N1C[C@@H](Cc2ccccc2)N(CCCC2CCCC2)C1=N | inconclusive: 35.5 µM [inhibitor, single point] |
| CNC(=O)OCc1cccc(COC(=O)NC)n1 | inconclusive: 35.5 µM [inhibitor, partial curve, poor fit] |
| CC1=NN(c2ccc(S(=O)(=O)O)cc2Cl)C(=O)C1 | inconclusive: 1.58 µM [inhibitor, full curve, poor fit] |
| O=C(Nc1nnc2n1CCS2)c1cc(C(F)(F)F)cc(C(F)(F)F)c1 | inactive |
| O=C(O)c1c2c(nc3ccc(S(=O)(=O)N4CCC(C(=O)NC5CCCCCC5)CC4)cc13)CCCC2 | inconclusive: 31.6 µM [inhibitor, full curve, poor fit] |
| Cc1ccc(C=Nc2ccc(N(C)C)cc2)o1 | inconclusive: 25.1 µM [inhibitor, partial curve, poor fit] |
| COc1ccc(C2CC(c3ccccc3Cl)=NN2c2ccc(S(N)(=O)=O)cc2)cc1 (stereo not given) | inconclusive: 79.4 µM [inhibitor, partial curve, poor fit] |
| O=C(CCCOc1ccc(Cl)cc1)N1CCCCC1 | inconclusive: 70.8 µM [inhibitor, full curve] |
| Cc1cc(C)cc(NC(=O)c2cc(S(=O)(=O)N3CCCCC3)c[nH]2)c1 | inactive |
| Cc1ccnc(NC(=O)c2ccc(COc3ccc(Cl)cc3)o2)c1 | inconclusive: 39.8 µM [inhibitor, single point] |
| COc1ccc(OC)c(NC(=O)CC2SC(=N)N(c3ccccc3)C2=O)c1 (stereo not given) | inactive |
| Cc1cccc2sc(NC(=O)CSCc3ccccc3)nc12 | inconclusive: 2.51 µM [inhibitor, full curve, poor fit] |
| FC(F)(F)c1ccc(C2[C@H]3CN(Cc4cccnc4)[C@H](c4ccccc4)C34CC2(c2cccnc2)C4)cc1 (stereo not given in full) | inconclusive: 28.2 µM [inhibitor, partial curve, poor fit] |
| CCOc1ccccc1CNC(=O)C1CCN(C2=NS(=O)(=O)C(c3ccc(C)c(C)c3)=C2C)CC1 | inactive |
| Cc1noc(C)c1COC(=O)c1ccc(F)c(S(=O)(=O)N2CCCCC2)c1 | inconclusive: 56.2 µM [inhibitor, partial curve, poor fit] |
| COc1ccccc1CNC(=O)C1CCN(S(=O)(=O)c2ccc(N3CCCC3=O)cc2)CC1 | inactive |
| CC(Sc1ccsc1[N+](=O)[O-])C(=O)NCc1ccco1 (stereo not given) | inconclusive: 22.4 µM [inhibitor, partial curve, poor fit] |
| CCOC(=O)CSc1nc(-c2ccccn2)ncc1OC | inactive |
| CCOc1cccc(/C(O)=C2/C(=O)C(=O)N(CCOC)C2c2ccco2)c1 (stereo not given) | inconclusive: 17.8 µM [inhibitor, full curve, poor fit] |
| CCOC(=O)Cc1cc(=O)[nH]c(Nc2nc3ccccc3o2)n1 | inconclusive: 112 µM [inhibitor, partial curve, poor fit] |

An excerpt of these results, with each value named:
CCOc1ccccc1CNC(=O)C1CCN(C2=NS(=O)(=O)C(c3ccc(C)c(C)c3)=C2C)CC1
  Potency: inactive
Cc1noc(C)c1COC(=O)c1ccc(F)c(S(=O)(=O)N2CCCCC2)c1
  Potency: inconclusive: 56.2 µM [inhibitor, partial curve, poor fit]

More records.

| SMILES | Potency |
| --- | --- |
| COc1ccccc1/C=C/C(=O)NC(=S)NCC1CCCO1 (stereo not given) | inactive |
| Cc1ccc(CSCC(Nc2ccc(C(=O)O)cc2[N+](=O)[O-])C(=O)O)cc1 (stereo not given) | inactive |
| Cc1ccc(Nc2nnc(-c3ccc(C)c(S(=O)(=O)N4CCN(C)CC4)c3)c3ccccc23)c(C)c1 | inconclusive: 89.1 µM [inhibitor, single point] |
| CCN(CC)CCn1c(=N)n(CC(=O)c2ccc(C)cc2)c2ccccc21 | inconclusive: 50.1 µM [inhibitor, partial curve, poor fit] |
| COc1ccc(C(=O)Nc2ccc(Cl)cc2C(=O)NCc2ccco2)cc1OC | inconclusive: 5.01 µM [inhibitor, full curve, poor fit] |
| CCCC[n+]1c(/C=C/c2ccc(N(C)C)cc2)sc2ccccc21 | active: 50.1 µM |
| CCC(Nc1nc(-c2ccccc2)nc2ccccc12)C(=O)O (stereo not given) | inconclusive: 89.1 µM [inhibitor, partial curve, poor fit] |
| CN(C)c1ccc(/C=C/C(=O)c2ccc(O)cc2)cc1[N+](=O)[O-] | inconclusive: 22.4 µM [inhibitor, full curve, poor fit] |
| CC(C)NC(=O)NC(=O)CSc1nnc(COc2ccccc2Cl)o1 | inconclusive: 79.4 µM [inhibitor, single point] |
| N#C/C(=C/c1ccc(O)c(O)c1)C(=O)NCc1ccc(Cl)cc1 | inconclusive: 50.1 µM [inhibitor, partial curve, poor fit] |
| O=C1N=c2ccccc2=C1c1c(O)n(-c2cccc(F)c2)[nH]c1=O | inconclusive: 39.8 µM [inhibitor, single point] |
| CCN(C(=O)CN1CCN(c2ccc(OC)cc2)CC1)c1c(N)n(Cc2ccccc2)c(=O)[nH]c1=O | inconclusive: 28.2 µM [inhibitor, single point] |
| Oc1cccc(/C=N/N2CCCCC2)c1O | inconclusive: 63.1 µM [inhibitor, single point] |
| O=C(CC(Nc1cccc(Cl)c1Cl)C(=O)OCC(=O)c1cccs1)c1ccccc1 (stereo not given) | inconclusive: 79.4 µM [inhibitor, partial curve, poor fit] |
| COc1cc(/C=C2\SC(=O)N(CC(=O)Nc3ccc(C)cc3)C2=O)cc(Cl)c1OCC(=O)O | active: 20 µM |
| COc1ccccc1OCC(=O)Nc1sc2c(c1C(N)=O)CCC2 | inconclusive: 39.8 µM [inhibitor, full curve, poor fit] |
| OCCN1CCN(c2nc(-c3ccccc3)nc3c2oc2ccccc23)CC1 | inconclusive: 28.2 µM [inhibitor, single point] |
| Cc1cc(-n2c(C)c3c(C)nnc(C)c3c2C)ccc1N | inconclusive: 22.4 µM [inhibitor, single point] |
| COc1cc(-c2noc(CSc3nc(-c4ccccc4)cc(=O)[nH]3)n2)cc(OC)c1OC | inconclusive: 89.1 µM [inhibitor, single point] |
| Cc1cccc(C(=O)NCC(c2ccc3c(c2)OCO3)N2CCN(c3ccccc3F)CC2)c1 (stereo not given) | inconclusive: 39.8 µM [inhibitor, partial curve, poor fit] |
